Results are given in words; binding and its absence hold for the method and conditions named. Binding seen in cells or lysates may run through a third protein. Some results given as binding are weak or reduced against the parent protein; the word gives no strength.
Molecular target: Halo-FLAG-FUS (wild type) complexed with the photoreactive ligand PL (UniProt P35637)
Assay: cross-linking

Chains of the proteins cited; added tags and fusions are not shown.
UniProt P35637: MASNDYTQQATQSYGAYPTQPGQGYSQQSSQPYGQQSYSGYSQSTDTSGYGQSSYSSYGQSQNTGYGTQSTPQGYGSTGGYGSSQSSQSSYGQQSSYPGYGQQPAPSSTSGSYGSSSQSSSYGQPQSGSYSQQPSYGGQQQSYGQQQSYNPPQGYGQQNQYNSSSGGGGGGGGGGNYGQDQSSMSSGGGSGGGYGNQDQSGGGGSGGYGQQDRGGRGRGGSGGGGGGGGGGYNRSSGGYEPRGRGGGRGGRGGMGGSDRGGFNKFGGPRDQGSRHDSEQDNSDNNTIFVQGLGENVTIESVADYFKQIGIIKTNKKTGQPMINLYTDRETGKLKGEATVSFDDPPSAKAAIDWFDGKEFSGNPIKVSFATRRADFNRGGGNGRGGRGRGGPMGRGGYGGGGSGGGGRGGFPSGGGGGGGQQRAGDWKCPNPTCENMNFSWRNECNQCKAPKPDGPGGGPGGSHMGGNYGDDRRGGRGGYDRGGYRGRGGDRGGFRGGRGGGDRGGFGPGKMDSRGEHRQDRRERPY

## Valosin-containing protein (VCP), endogenous in the cells of the photo-cross-linking experiment (from UniProt P55072 1-806)
  binding: binds
